Data published in US6774139B1, “Dual function microbicides” (Parker Hughes Institute, priority 2000, dated 2004).
Values joined by “and” are separate entries in the source; they are usually repeats but may differ in a detail not shown here. Equal entries are not always repeated.

Experiments:
Assay type in all cases: cell-based
[1] = system: normal human endocervical epithelial cells; assay: MTT cell viability assay, endocervical epithelial cells
Method: (§1) Briefly, exponential growing vaginal, ectocervical, and endocervical epithelial cells were seeded into 96-well plates at a density of 2×10^4 cells/well and incubated for 24 h at 37° C. prior to drug exposure. On the day of treatment, culture medium was aspirated from the wells and replaced with fresh medium containing serial two-fold drug concentrations ranging from 7.8 μM to 1000 μM. N-9 (IGEPAL CO-630; Rhone Poulenc, Cranbury, N.J.) was diluted in PBS. Triplicate wells were used for each treatment. Culture plates were then incubated for 3 hours before adding 10 μl of MTT solution (5 mg/ml in PBS) to each well. Wells containing only medium and MTT were used as control for each plate. The tetrazolium/formazan reaction was allowed to proceed for 4 hours at 37° C., and then 100 μl of the solubilization buffer (10% sodium dodecyl sulfate in 0.1% HCl) was added to all wells and mixed thoroughly to dissolve the dark blue formazan crystals. After an overnight incubation at 37° C., the OD at 540 nm were measured using a 96-well multiscanner autoreader with the solubilization buffer serving as blank. To translate the OD540 values into the number of live cells in each well, the OD540 values were compared to those of standard OD540-versus-cell number curves generated for each cell line. The percent survival was calculated using the formula: % survival=Live cell number [test]/Live cell number [control]×100. The results were expressed as mean IC50 values for three independent experiments. The IC50 [MTT] was defined as the concentration required for 50% reduction in cell survival.
(§2) Cell viability was measured by the MTT assay.

[2] = system: normal human ectocervical epithelial cells; assay: MTT cell viability assay, ectocervical epithelial cells
Method: as §1, §2

[3] = system: normal human vaginal epithelial cells; assay: MTT cell viability assay, vaginal epithelial cells
Method: as §1, §2

SMILES | SI (ratio of IC50[MTT] to EC50[SIA]) endocervical epithelial cells [1] | SI (ratio of IC50[MTT] to EC50[SIA]) ectocervical epithelial cells [2] | SI (ratio of IC50[MTT] to EC50[SIA]) vaginal epithelial cells [3]
S=C(NCCC1=CCCCC1)Nc1ccc(Br)cn1 [HI 346] | 13.8 | 18.2 | >23.8
S=C(NCCC1=CCCCC1)Nc1ccc(Cl)cn1 [HI 445] | 3.2 | 12.1 | 10.1
CCCCCCCCCc1ccc(OCCOCCOCCOCCOCCOCCOCCOCCOCCO)cc1 [Compound N-9, nonoxynol-9, reference compound] | 0.3 and 0.4 | 0.7 | 0.7
Fc1ccccc1CCNC(=S)Nc1ccc(Br)cn1 [HI 240] | >6.8 | >6.8 | >6.8
S=C(NCCc1ccccn1)Nc1ccccn1 [HI 207] | >3.5 | >3.5 | >3.5
S=C(NCCc1ccccc1Cl)Nc1ccc(Br)cn1 [HI 253] | >14.2 | >14.2 | >14.2
